Some of the results follow. Further columns of the screen follow, without active or inactive calls. Most of these compounds were active or inconclusive in the main read-out, so they are no random draw. Words in brackets tell the shape of the fitted curve; partial curves, single points and poor fits give uncertain potencies.

The assay in a line: qHTS Assay for Lipid Storage Modulators in Drosophila S3 Cells.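 On cell number change: cells counted by Cell Tracker Red CMTPX staining in the red channel.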 Particulars: BODIPY lipid droplet fluorescence, 18-24 h; for cell number change: measured here: cell count max response, cells fed with added oleic acid. The gist of the method: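 Drosophila S3 cells got compounds at several concentrations plus oleic acid (400 uM solution). Laser-scanning cytometry with 488 nm excitation read lipid droplets at 500-530 nm and cells at 575-640 nm. Percent activity was relative to 20 uM Triacsin C.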

The mark [1] stands for this setting: measured here: cell number channel AC50, cells fed with added oleic acid.
[2] abbreviates: measured here: lipid fluorescence (Fed channel) AC50, cells fed with added oleic acid.

The term AC50 denotes the concentration at which the activity in the assay is half-maximal. For the molecule `N#Cc1nc(-c2ccco2)oc1N1CCC(Cc2ccccc2)CC1`, the cell number change came to 57.1%. The AC50 under setting [1] was 11.6 µM [rising, partial curve]. In addition, the AC50 under setting [2] is 14.6 µM [rising, partial curve].

`O=C(NC1CC2CCC(C1)N2Cc1ccccc1)c1ccccc1Cl` (stereo not given): the cell number change came out at 2.71%. The AC50 under setting [2] was 32.6 µM [rising, single point].

In the case of `CC1CCN(C(=O)CSc2nc(C3CC3)nc3ccccc23)CC1`, the cell number change was 10%. Besides, the AC50 under setting [2] was 0.58 µM [rising, single point]. Turning to `CC(C)Oc1ccc(N2CC(C(=O)Nc3ccccn3)CC2=O)cc1` (stereo not given), the cell number change was -5.56%. In addition, under setting [2], the AC50 was 6.51 µM [falling, single point]. Regarding `COc1cc(CCC(=O)Nc2ccc(C)c(S(=O)(=O)N3CCCCCC3)c2)cc(OC)c1OC`, the cell number change was found to be 15%. The AC50 under setting [1] was 1.3 µM [rising, partial curve]. Further, the AC50 under setting [2] was 29.1 µM [falling, single point]. For `COc1ccc(S(=O)(=O)N2CCSC2C)cc1C` (stereo not given), the AC50 under setting [2] is 0.731 µM [falling, partial curve, poor fit]. Take `O=C(N/N=C/c1ccco1)c1cc(-c2ccncc2)nc2ccccc12`: the cell number change is -17.4%. Moreover, the half-maximal activity concentration (AC50) under setting [2] was 1.84 µM [falling, partial curve, poor fit].

For the molecule `CN1CCN(S(=O)(=O)c2ccc(Oc3cccc(C(F)(F)F)c3)nc2)CC1`, the cell number change was -12.8%. For the same molecule, the AC50 under setting [2] is 8.2 µM [falling, partial curve]. `COc1ccc(NC(=O)N2CCC(c3ccccc3)C2)c(OC)c1` (stereo not given): the cell number change was -45.3%. The AC50 under setting [1] was 5.17 µM [falling, partial curve]. The AC50 under setting [2] is 6.51 µM [falling, single point]. For the molecule `Cc1cc(C)nc(N/N=C/c2ccccc2OCc2ccc(Br)cc2)n1`, the cell number change stood at 17%. Also, the AC50 under setting [2] was 32.6 µM [falling, single point].

Consider `O=C(/C=C/c1ccccc1Cl)Nc1ccccc1`, for which the cell number change was -3.07%. Under setting [2], the AC50 is 0.092 µM [falling, full curve, poor fit]. Take `CCCOC(=O)/C(=C\C=C\c1ccco1)NC(=O)c1ccccc1`: the cell number change is -28.8%. The AC50 under setting [2] is 0.13 µM [falling, full curve, poor fit]. Turning to `COc1ccc(NC(=O)Cn2c(C)cc(=O)c3ccccc32)cc1`, the cell number change is -30.1%. For the same molecule, the AC50 under setting [1] was 14.6 µM [falling, single point]. For the same molecule, the AC50 under setting [2] is 16.4 µM [falling, single point]. Turning to `O=C(c1ccc(Cl)cc1)N(c1ccccn1)C1CCCCC1`, the cell number change was -10.2%.

For the molecule `O=C(NCc1ccccc1)c1c[nH]c2ccccc2c1=O`, the cell number change was -7.14%. For the same molecule, the AC50 under setting [2] was 29.1 µM [falling, single point].

As to `COc1cccc(CN(C)C(=O)CN2C(=O)NC(c3ccccc3)(c3ccccc3)C2=O)c1`, the cell number change is -12%. The AC50 under setting [2] was 2.91 µM [falling, single point]. Regarding `O=C(NCc1ccncc1)C(=O)N/N=C/c1ccccc1OCc1ccccc1`, the cell number change is -64.9%. Further, the AC50 under setting [1] was 23.1 µM [falling, partial curve, poor fit]. In addition, the AC50 under setting [2] is 20.6 µM [falling, partial curve, poor fit]. `CCCOc1ccc(-c2nc(N)n[nH]2)cc1`: the cell number change was found to be 147%. Further, the AC50 under setting [2] was 23.1 µM [rising, partial curve].

Take `CC(C)NC(=O)c1cccc(C(F)(F)F)c1`: the cell number change was found to be 7.42%. Also, under setting [2], the AC50 is 6.51 µM [falling, single point]. Turning to `CCN(CC)c1ccc(CNC(=O)C/C(C)=N/NC(=O)COc2ccc(C)cc2Br)cc1`, the AC50 under setting [2] is 5.17 µM [falling, single point]. Turning to `O=C(CSc1nnc(-c2ccccc2)o1)NCC1CCCCC1`, the cell number change was -15.2%. Also, the AC50 under setting [2] was 29.1 µM [falling, single point]. In the case of `Cc1cc2sc3ccccc3c(=O)c2c(C)c1O`, the cell number change worked out at 24.6%. Besides, the AC50 under setting [2] was 9.2 µM [rising, partial curve].

Consider `CCn1cc(S(=O)(=O)Nc2cc(C)ccc2F)cn1`, for which the cell number change was 13.2%. Besides, the AC50 under setting [2] was 6.51 µM [falling, single point]. As for `Cc1nc(NN)c2c3c(sc2n1)COC(C)(C)C3`, the cell number change is 26.3%. Also, the AC50 under setting [2] was 3.26 µM [rising, partial curve, poor fit]. In the case of `COc1ccc(CNC(=O)CC2C(=O)NCCN2C2Cc3ccccc3C2)cc1` (stereo not given), the cell number change was found to be 21.3%. `CCOC(=O)c1ccc2c(c1)nc(COc1ccccc1C#N)n2CC`: the cell number change came to 21.6%. Also, the AC50 under setting [2] was 0.103 µM [rising, full curve]. As for `C=C(C)Cn1c(COc2ccccc2)nnc1SCC(=O)O`, the cell number change was -15.9%. For the same molecule, the AC50 under setting [2] is 1.03 µM [falling, full curve, poor fit]. Consider `Cc1cc2nc(C)n(CCCNC(=O)Nc3cccc4ccccc34)c2cc1C`, for which, under setting [1], the AC50 is 6.51 µM [rising, single point]. Regarding `COc1ccc2[nH]c(=O)c(CNc3ccccc3OC)cc2c1`, the cell number change was -24.2%. The AC50 under setting [2] was 0.00461 µM [rising, full curve, poor fit]. On to `C=CCNC(=S)NNC(=O)c1cccnc1`, for which the cell number change was -31.9%. Moreover, the AC50 under setting [1] is 6.51 µM [falling, full curve, poor fit]. Besides, the AC50 under setting [2] is 29.1 µM [falling, single point]. Regarding `O=C(Nc1nnc(-c2ccco2)o1)c1ccc(S(=O)(=O)N2CCOCC2)cc1`, the cell number change was -1.56%. Further, under setting [1], the AC50 was 0.092 µM [rising, full curve, poor fit]. Turning to `NNc1nc2cc3c(cc2s1)OCCO3`, the cell number change is 10.4%. For the same molecule, under setting [2], the AC50 was 6.51 µM [falling, partial curve, poor fit]. `Cc1ccc(C(=O)Nc2ccc3c(c2)C(=O)N(C)C3=O)c(C)c1`: the cell number change was determined as 5.69%. Besides, the AC50 under setting [2] is 3.66 µM [rising, full curve]. `COc1ccccc1CNC(=O)C1CCN(C(=O)[C@@H]2Cc3ccccc3CN2)CC1`: the cell number change is -13.7%. As for `CCCCOc1ccc(C2C3CN(C(=O)OCC)CC=C3C(C#N)=C(N)C2(C#N)C#N)cc1OC` (stereo not given), the cell number change was -25.5%. Also, the AC50 under setting [2] is 0.58 µM [rising, single point]. Regarding `FCCCOc1ccc(-c2nccc(-c3ccc(Cl)cc3)n2)cc1`, the cell number change worked out at 38.7%. Further, the AC50 under setting [1] was 20.6 µM [rising, single point]. For the same molecule, under setting [2], the AC50 was 20.6 µM [rising, single point]. In the case of `CCOc1ccc(C(C)=O)cc1N1C(=O)C2C3C=CC(C3)C2C1=O` (stereo not given), the cell number change was determined as 6.28%. Besides, the AC50 under setting [2] was 29.1 µM [rising, single point]. Take `O=C(/C=C/C(=O)N1CCc2ccccc2C1)N1CCc2ccccc2C1`: the cell number change is -26.1%. In the case of `CCC(C)n1c(=O)c(C(=O)Nc2ccccc2S(N)(=O)=O)c(O)c2ccccc21` (stereo not given), the cell number change is -5.99%. Under setting [2], the AC50 is 0.92 µM [falling, full curve]. On to `N#CNc1nc(O)cc(=O)[nH]1`, for which the cell number change is 27.4%. On to `O=C(Cc1n[nH]c(=O)c2ccccc12)NC(c1ccccc1)c1ccccc1`, for which the cell number change was 8.49%. Further, the AC50 under setting [2] is 13 µM [rising, partial curve].

In the case of `CC1(C)CCCC2=C1CC1C(=O)N(O)C(=O)C1C2` (stereo not given), the cell number change came out at 1.41%. On to `O=C1COc2ccc(C(=O)COC(=O)CNS(=O)(=O)c3cccc(F)c3)cc2N1`, for which the cell number change is -27.3%. In addition, the AC50 under setting [1] is 2.91 µM [falling, full curve, poor fit]. In addition, the AC50 under setting [2] is 29.1 µM [rising, single point]. As for `Cc1ccc(OCCN2CCN(C)CC2)c([N+](=O)[O-])c1`, the cell number change is -0.402%. As for `CCCC(=O)O[C@]1(C(=O)CO)CC[C@H]2[C@@H]3CCC4=CC(=O)CC[C@]4(C)[C@H]3[C@@H](O)C[C@@]21C`, the cell number change stood at 11.6%. Also, under setting [2], the AC50 is 0.146 µM [rising, full curve, poor fit]. As to `Cc1nn(CC(=O)NCC2CCCO2)c(=O)c2cc3ccccc3n12` (stereo not given), the cell number change was -6.11%. Under setting [2], the AC50 was 29.1 µM [falling, single point]. For `Cc1c(CCC(=O)NC2CC2)c(=O)oc2c(C)c(O)ccc12`, the cell number change was -31.4%. Besides, the AC50 under setting [1] is 13 µM [falling, partial curve, poor fit]. As for `c1ccc(CNc2nc3ccccc3n3cnnc23)nc1`, the cell number change worked out at 4.03%. Also, under setting [2], the AC50 was 6.51 µM [rising, partial curve, poor fit].

As to `COc1ccc(-c2nn(-c3ccccc3)cc2/C=C/C(=O)O)cc1[N+](=O)[O-]`, the cell number change was -10.8%. Moreover, under setting [2], the AC50 was 0.92 µM [falling, full curve, poor fit]. Take `Cc1ccc(C(C(=O)NCc2ccc(F)cc2)N(Cc2ccco2)C(=O)c2snc(C(N)=O)c2N)o1` (stereo not given): under setting [2], the AC50 was 29.1 µM [falling, single point]. Regarding `COc1ccc(C(=O)CSc2nc3ncccc3[nH]2)cc1OC`, the cell number change was determined as 7.6%. For the same molecule, under setting [2], the AC50 was 5.8 µM [rising, partial curve, poor fit]. As for `CCNC(=O)COC(=O)Cc1ccc(Cl)cc1Cl`, the cell number change was -2.04%. The AC50 under setting [2] is 2.06 µM [rising, partial curve]. `Cn1c(N)c(C(=O)COC(=O)c2cc(-c3ccco3)nc3ccccc23)c(=O)n(C)c1=O`: the cell number change is -44.6%. For the same molecule, the AC50 under setting [1] is 18.4 µM [falling, single point]. For the same molecule, under setting [2], the AC50 is 4.11 µM [rising, full curve]. With `Cc1cc(C(=O)N/N=C\c2cc(C(C)(C)C)ccc2O)n[nH]1`, the cell number change is -29.7%.

As to `N=c1c(C(=O)NCc2ccc(F)cc2)cc2c(=O)n3ccccc3nc2n1CCCN1CCOCC1`, the cell number change was 14.3%. Moreover, the AC50 under setting [2] is 0.184 µM [rising, full curve, poor fit].

On to `CCc1cc2c(=O)c(-c3ccon3)c(N)oc2cc1OC`, for which the cell number change is -5.73%. For the same molecule, the AC50 under setting [2] was 0.291 µM [rising, full curve, poor fit]. `c1coc(C2=Nc3cccc4cccc(c34)N2)c1`: the cell number change is -11.2%. For the same molecule, under setting [1], the concentration at half-maximal activity (AC50) was 6.51 µM [falling, single point]. For the same molecule, under setting [2], the AC50 is 3.26 µM [falling, partial curve].

For `CCC1(CC)NC(=O)N(CC(=O)OCc2nc3cc(C(=O)OC)ccc3c(=O)[nH]2)C1=O`, the cell number change is -7.52%. Besides, the AC50 under setting [1] was 5.17 µM [falling, single point]. As to `O=C(c1cc(-c2cccs2)on1)N1CCOCC1`, the cell number change is -1.29%. Also, the AC50 under setting [2] is 4.61 µM [falling, full curve, poor fit]. With `Nc1nnnn1/N=C/c1cc(Cl)ccc1O`, the cell number change was determined as 5.41%. Further, the AC50 under setting [1] was 2.91 µM [rising, partial curve].

`CCOC(=O)c1ccc2[nH]c3c(c2c1)CCCC3NC=O` (stereo not given): the cell number change stood at 22.3%. Further, the AC50 under setting [2] is 0.58 µM [falling, single point].

Values taken from PubChem BioAssay AID2685 (National Center for Advancing Translational Sciences (NCATS), 2010).
